Results reported in article PMC5286356.
These are yes or no findings as the source states them, for the method shown. Binding calls can cover weak binding; strength is not graded here.

Sequences of proteins named here, by UniProt entry; tags and fusion partners are left off. A change or cut given only in a name is not applied to a line headed by its entry.
UniProt P68530: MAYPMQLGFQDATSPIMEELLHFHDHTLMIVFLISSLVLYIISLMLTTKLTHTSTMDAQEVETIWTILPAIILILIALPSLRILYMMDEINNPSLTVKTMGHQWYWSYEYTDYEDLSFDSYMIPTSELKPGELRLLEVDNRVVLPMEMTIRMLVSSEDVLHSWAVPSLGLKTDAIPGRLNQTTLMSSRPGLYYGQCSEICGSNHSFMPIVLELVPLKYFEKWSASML
UniProt P00429: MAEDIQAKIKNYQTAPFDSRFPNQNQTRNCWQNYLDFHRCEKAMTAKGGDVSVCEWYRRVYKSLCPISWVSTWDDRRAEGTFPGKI
UniProt P00004: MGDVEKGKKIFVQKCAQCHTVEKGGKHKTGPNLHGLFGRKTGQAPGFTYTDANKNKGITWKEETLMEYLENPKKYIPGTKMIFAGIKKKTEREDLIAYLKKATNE

What was measured:
[1] = target: subunit II of bovine cytochrome c oxidase (bovine) (UniProt P68530); assay: crystal structure; co-crystallised by the batch-wise method at 277 K; 15 mM sodium phosphate pH 8.0, DM and FOM, Cyt.c/CcO molar ratio 1.2, ~5% PEG 4000; ferri-Cyt.c and oxidized CcO; crystals soaked with 50 uM Cyt.c; refined at 2.0 A; both purified
[2] = target: subunit VIb of bovine cytochrome c oxidase (bovine) (UniProt P00429); assay: as above

binding [1]: binds
binding [2]: binds
Substance: horse heart cytochrome c (from UniProt P00004 1-105)
